These results are taken from PMC6905112, “CtcS, a MarR family regulator, regulates chlortetracycline biosynthesis” (BMC Microbiology, 2019).

The target of the series is T1, CtcS (Streptomyces aureofaciens F3) (UniProt S4S3A4).
T1 sequence (looked up, limits assumed): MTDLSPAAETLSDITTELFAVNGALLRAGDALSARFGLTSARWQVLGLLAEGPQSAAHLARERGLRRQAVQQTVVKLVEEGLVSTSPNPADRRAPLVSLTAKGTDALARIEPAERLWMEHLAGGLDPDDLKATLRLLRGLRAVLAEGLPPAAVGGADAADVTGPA
Kind of series: EMSA. The following applies: EMSA: 50 mM Tris-HCl pH 8.0, 100 mM KCl, 2.5 mM MgCl2, 0.2 mM DTT, 10% glycerol, 0.04 pmol FAM probe, 100 ng/uL salmon sperm DNA, 25 C 30 min, recombinant protein, protein details: His6 (pET28a NdeI/EcoRI), label: FAM, probe letters rebuilt from the primers and the genome, part of a longer molecule.

For at least one entry, the source does not settle the construct or the ends of the probe. The comparison behind a weaker result is the experiment's own reference, which may not be listed here. Where a protein sequence is shown, tags need not be part of it.

Take “TGAGCCCGAAGCGGGCGGACAGCGCGTCGCCCGCGCGCAGCAGGGCTCCGTTGACGGCGAACAGTTCGGTGGTGATGTCACTCAAGGTCTCGGCCGCGGGGGAGAGATCGGTCATGGGGGCAGCCTAATCGCAGGCTCTCCACGGCCAGCCTAGCCTCGTCCGGGCCGGGATTTCGGCAAGAACTTGTCATTCCGCCACGGTAGCCACTACGCTCAGTTCGACAAGACCTTGTCGAATTCGGTGGGAGAAATGGGAATGGCGAACGCCACCTCGCAGACCGGCGAGGCCGTCGCGGACGAGGCCGGCGGCCCCGCCGGCTTCACTCACCGCCAGATCATCACCGCGCTGTCCGGGCTCCTGTTGGCCGTG (double strand) [ctcS-ctcR intergenic region probe]”: the binding result by setting is: (10-40 pmol CtcS in 20 uL, salmon sperm DNA 100 ng/uL) “binds”; (chlortetracycline 1.5 uM, no effect on complex, 20 uL) “binds”; (chlortetracycline 0.5 mM, same shift change as 2.5 uM tetracycline, 20 uL) “binds more weakly”; (tetracycline, complex dissociates at 1.5 uM, concentration dependent, 20 uL) “binds more weakly”.
